Some of the results follow.

Protein sequences, listed by entry. Tags and fused reporters are not part of them.
UniProt Q0JBA9, entry or part of it: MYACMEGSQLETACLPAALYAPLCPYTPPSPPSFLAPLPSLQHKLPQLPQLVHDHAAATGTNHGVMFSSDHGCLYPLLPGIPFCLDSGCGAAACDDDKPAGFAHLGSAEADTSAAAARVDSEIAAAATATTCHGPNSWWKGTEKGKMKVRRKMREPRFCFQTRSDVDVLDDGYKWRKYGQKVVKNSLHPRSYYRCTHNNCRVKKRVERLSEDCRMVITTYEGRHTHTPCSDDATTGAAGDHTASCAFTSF

The experiment has as its target OsWRKY34 (Oryza sativa, UniProt Q0JBA9 1-250). Kind of experiment: protein-binding microarray (RPBM); PBS, 2% BSA, 51.3 ng/ul salmon testes DNA, 50 uM zinc acetate, 200 nM TF, 25 C, 1 h; high values mean tight binding. The following applies: protein: recombinant; tags: N-terminal polyhistidine and DsRed monomer fusion (pET32a); label: CyDye5-dUTP incorporated in the synthesized complementary strand; 3' TTTTT single-stranded linker to array surface; dsDNA, one strand shown. Summed up:
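For the binding signal, per-feature fluorescence intensity was read in arbitrary units on an Axon 4000B scanner. Before scanning, a 2% BSA-blocked custom Agilent array made double-stranded with Cy5-dUTP was washed after 1 h at 25 °C with 200 nM protein and 50 µM zinc acetate. The proteins were Ni–NTA-purified transcription factors with N-terminal polyhistidine and DsRed fusions, expressed in E. coli BL21-CodonPlus.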
On to “TATCCAACTCCGCGTCCGTCCAGCTCTGCTTCCTACACAACGGAGTCACCTAGTGCAG”, for which the binding signal is 8410 fluorescence intensity (a.u.).
As for “GCCCTACTTTCTTCAGTAGTTTGAAACCTTTCTGCGCCACCGGAGTCACCTAGTGCAG”, the binding signal is 9880 fluorescence intensity (a.u.).
For “CCTACCGGATCCTGGTCGCCGTCGTCGCCTGCCTCTTCGTCGGAGTCACCTAGTGCAG” the value was 9350 fluorescence intensity (a.u.); for “GGCTTTGTAGGCTATGGTCGATGTGTTGGTGGTGAAATTCCGGAGTCACCTAGTGCAG”, 8020 fluorescence intensity (a.u.).
“CTGGGTTTTTTCTGGTGGGTCAGTACGCATGCGCTCCTCTCGGAGTCACCTAGTGCAG”: the binding signal was 10900 fluorescence intensity (a.u.).
For “ACTGCACTCTGCTTGCCATATCTGAAGTATGTCTATTGGCCGGAGTCACCTAGTGCAG” the value was 9590 fluorescence intensity (a.u.).
“ATTCTAAATTCCAATTCGTTCTTTCTCGGGACCCTAGACTCGGAGTCACCTAGTGCAG”: the binding signal is 8940 fluorescence intensity (a.u.).
In the case of “ATATGCTTCTGTTCCCTTTTACAATTTGATTGCTTCCTTTCGGAGTCACCTAGTGCAG”, the binding signal was 9480 fluorescence intensity (a.u.).
On to “TTTTCGGCCAAATATTCCCGCGCCATCTCCGCTTTGTCAGCGGAGTCACCTAGTGCAG”, for which the binding signal is 14000 fluorescence intensity (a.u.).
For “ACTTTGGACCATTTTATCTTCTTATATACTATATATTTTACGGAGTCACCTAGTGCAG” the value was 12300 fluorescence intensity (a.u.).
For “GCTCCCGCGCCCGTTCCAGCTCGCCCGCTCTAGCTTCGCGCGGAGTCACCTAGTGCAG”, the binding signal was 9400 fluorescence intensity (a.u.).
As to “CTAGCTTAATTCTGTTTTCATCGTTGTTGGTTTACTTTGACGGAGTCACCTAGTGCAG”, the binding signal is 8880 fluorescence intensity (a.u.).
Regarding “TCACCTTCAACGCCGTGTTCAGCGGCCTCGTCGGCATCTTCGGAGTCACCTAGTGCAG”, the binding signal was 8310 fluorescence intensity (a.u.).
On to “GCAACCATAAGTTTCCACGTCCAACTTTTTATCGTCCGTCCGGAGTCACCTAGTGCAG”, for which the binding signal is 10100 fluorescence intensity (a.u.).
As for “TCTTTCCACTTCGTTCCACCTCTCCTCCGTGCAAAATCCCCGGAGTCACCTAGTGCAG”, the binding signal is 8090 fluorescence intensity (a.u.).
In the case of “ATATGAAACTTAAGTTCTTTTTTTTCTCAAAAAATCCTTCCGGAGTCACCTAGTGCAG”, the binding signal was 8090 fluorescence intensity (a.u.).
“CTATCTATATCTATCTATCTATCTTTCTATACCTATACTACGGAGTCACCTAGTGCAG”: the binding signal was 9100 fluorescence intensity (a.u.).
For “TTTTCTCTTGAAAATATTAGTTTTTTCACTTCCTATTTTCCGGAGTCACCTAGTGCAG” the value was 8580 fluorescence intensity (a.u.); for “TGTTCATCTTGCTCGTTCCTCCTCTCGCAGTCGCAGGTCGCGGAGTCACCTAGTGCAG”, 8980 fluorescence intensity (a.u.).
Regarding “CCTCTCCTCCTCACTGATGCCTCTCCTGTCCTCGAGCGGTCGGAGTCACCTAGTGCAG”, the binding signal is 8600 fluorescence intensity (a.u.).
Regarding “ATACTAGATTAATAGATATCTCTAACCTTTTTATCGCGTGCGGAGTCACCTAGTGCAG”, the binding signal was 8380 fluorescence intensity (a.u.).
In the case of “TAGTTTCTTTTTTACCTTGTTACGGCCCCACTTTTATTTTCGGAGTCACCTAGTGCAG” it was 10700 fluorescence intensity (a.u.); in that of “GGTTGGTTCCGTCCCTCTCATGTCGCTGTTTATACCGTTGCGGAGTCACCTAGTGCAG”, 12400 fluorescence intensity (a.u.).
In the case of “TGAGTTGCCATTAGGATTTTTTTTCTTCTGTCTCGCCATGCGGAGTCACCTAGTGCAG” it was 10800 fluorescence intensity (a.u.); in that of “GATACTGTAGTCAATATATTTTTAATGTTACATTGTTTTACGGAGTCACCTAGTGCAG”, 8220 fluorescence intensity (a.u.).
For “AGCAAGCTATACACCTCTCTTTCTCTCCTCTCTATCTTTCCGGAGTCACCTAGTGCAG” the value was 10300 fluorescence intensity (a.u.); for “CCTTCACCATTCGCCACCAACACACCGTTAGGCTCGACAACGGAGTCACCTAGTGCAG”, 10600 fluorescence intensity (a.u.).
For “ACCTAGATCCACCTCGTTAGTTTATTTTGTGAGAGTGCTCCGGAGTCACCTAGTGCAG”, the binding signal is 9140 fluorescence intensity (a.u.).
For “CGCTTTCCTCTCCGGCAACGACCTCGCAGCTGTGGCCACCCGGAGTCACCTAGTGCAG”, the binding signal is 18600 fluorescence intensity (a.u.).
Regarding “ATCAGTGACGACCATGCTCGCGACATCAACCGATCAGCTTCGGAGTCACCTAGTGCAG”, the binding signal is 9340 fluorescence intensity (a.u.).
In the case of “GAACGCCAATGTTCGCTTCACCTCCCAATTGCAGTTCACACGGAGTCACCTAGTGCAG”, the binding signal was 10400 fluorescence intensity (a.u.).
For “GATTAAGTCCTTACCTACTATTCGCGTCTTGGCTCACGCACGGAGTCACCTAGTGCAG”, the binding signal is 9120 fluorescence intensity (a.u.).
For “ATTTTCAGTGAATACTCAAGCTTTATTTCTGTTTATTGAACGGAGTCACCTAGTGCAG” the value was 9650 fluorescence intensity (a.u.); for “TTTCCATGATTCCATCTCCTCCATTCCCATCCGCCCGCATCGGAGTCACCTAGTGCAG”, 8600 fluorescence intensity (a.u.).
In the case of “ACACCCGCATATGATACCCTATGTAATACCCGATGTGATACGGAGTCACCTAGTGCAG”, the binding signal is 8150 fluorescence intensity (a.u.).
With “CCTCTTGTTCGTCTTGCTCTGTTTCTTTCTTGTTCTCTCCCGGAGTCACCTAGTGCAG”, the binding signal is 9550 fluorescence intensity (a.u.).
For “ACACACACACATCGTTGCAGCCTCGCACCGCCCGATAATACGGAGTCACCTAGTGCAG”, the binding signal is 8780 fluorescence intensity (a.u.).
For “CTCTTCTCCAGTTCTCTATTTCTTCCACTTCTCTCTTTCTCGGAGTCACCTAGTGCAG”, the binding signal was 11000 fluorescence intensity (a.u.).
Take “GATAACCGTAGGCCGTAGCCGCGTCCATCTCGCCCTCGCCCGGAGTCACCTAGTGCAG”: the binding signal was 8630 fluorescence intensity (a.u.).
For “TTTATTTTTCCTTTAAGTTTCCATATGTTGTTTATTTAACCGGAGTCACCTAGTGCAG” the value was 8260 fluorescence intensity (a.u.); for “GCCACCGCCGCCGCATCTCCTCATTCTTCCCGCCGCAGCTCGGAGTCACCTAGTGCAG”, 8400 fluorescence intensity (a.u.); for “AAAAAAATATATATGGCGGTGTTGACTTGGTTTTGGTCTTCGGAGTCACCTAGTGCAG”, 11800 fluorescence intensity (a.u.).
